# Source: the supplement of paper PMC12819154, “High-throughput peptide-centric local stability assay extends protein–ligand identification to membrane proteins, tissues and bacteria” (Nature Structural & Molecular Biology, 2025)
# The chains behind the UniProt entries cited, without tags or fusion partners. Where a name states a change or a piece, a line headed by the entry shows the natural chain unless it says otherwise.
# UniProt Q9JIB6, whole entry: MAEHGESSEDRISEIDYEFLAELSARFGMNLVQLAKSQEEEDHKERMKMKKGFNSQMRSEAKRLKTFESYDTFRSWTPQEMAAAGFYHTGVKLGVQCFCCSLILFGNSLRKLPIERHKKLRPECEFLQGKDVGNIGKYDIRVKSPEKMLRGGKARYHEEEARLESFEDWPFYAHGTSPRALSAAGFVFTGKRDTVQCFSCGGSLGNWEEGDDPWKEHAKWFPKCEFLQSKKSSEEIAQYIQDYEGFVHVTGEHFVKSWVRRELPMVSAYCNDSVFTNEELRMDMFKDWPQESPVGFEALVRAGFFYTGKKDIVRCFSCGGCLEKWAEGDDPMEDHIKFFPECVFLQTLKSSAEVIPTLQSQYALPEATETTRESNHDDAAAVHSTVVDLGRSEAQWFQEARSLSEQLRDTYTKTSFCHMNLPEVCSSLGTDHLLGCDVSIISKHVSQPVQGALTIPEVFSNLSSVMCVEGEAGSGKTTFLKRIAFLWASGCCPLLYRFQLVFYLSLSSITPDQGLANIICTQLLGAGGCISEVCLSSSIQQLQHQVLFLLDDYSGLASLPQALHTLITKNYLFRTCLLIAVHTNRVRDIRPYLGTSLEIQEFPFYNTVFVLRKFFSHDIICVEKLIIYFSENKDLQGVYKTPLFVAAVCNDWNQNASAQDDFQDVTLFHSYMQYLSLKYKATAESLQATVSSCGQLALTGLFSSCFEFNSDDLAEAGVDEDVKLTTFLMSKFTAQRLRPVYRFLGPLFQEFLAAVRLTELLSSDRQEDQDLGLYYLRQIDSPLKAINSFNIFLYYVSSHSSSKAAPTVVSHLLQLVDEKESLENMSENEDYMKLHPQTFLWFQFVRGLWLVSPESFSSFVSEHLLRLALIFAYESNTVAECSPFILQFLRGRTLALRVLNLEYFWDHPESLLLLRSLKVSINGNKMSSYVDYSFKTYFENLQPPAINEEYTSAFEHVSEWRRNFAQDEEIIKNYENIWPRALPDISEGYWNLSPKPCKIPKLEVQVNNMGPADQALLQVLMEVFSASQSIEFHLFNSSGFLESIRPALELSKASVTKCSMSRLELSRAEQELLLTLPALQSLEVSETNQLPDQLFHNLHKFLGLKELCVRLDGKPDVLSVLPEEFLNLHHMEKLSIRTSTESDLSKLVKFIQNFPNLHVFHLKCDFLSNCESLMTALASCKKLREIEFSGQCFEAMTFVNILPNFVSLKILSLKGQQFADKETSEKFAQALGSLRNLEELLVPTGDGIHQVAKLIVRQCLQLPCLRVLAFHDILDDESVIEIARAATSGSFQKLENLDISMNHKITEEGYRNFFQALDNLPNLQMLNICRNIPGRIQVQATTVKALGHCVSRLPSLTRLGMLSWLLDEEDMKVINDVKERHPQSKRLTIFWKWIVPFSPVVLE
# UniProt Q9JJN2: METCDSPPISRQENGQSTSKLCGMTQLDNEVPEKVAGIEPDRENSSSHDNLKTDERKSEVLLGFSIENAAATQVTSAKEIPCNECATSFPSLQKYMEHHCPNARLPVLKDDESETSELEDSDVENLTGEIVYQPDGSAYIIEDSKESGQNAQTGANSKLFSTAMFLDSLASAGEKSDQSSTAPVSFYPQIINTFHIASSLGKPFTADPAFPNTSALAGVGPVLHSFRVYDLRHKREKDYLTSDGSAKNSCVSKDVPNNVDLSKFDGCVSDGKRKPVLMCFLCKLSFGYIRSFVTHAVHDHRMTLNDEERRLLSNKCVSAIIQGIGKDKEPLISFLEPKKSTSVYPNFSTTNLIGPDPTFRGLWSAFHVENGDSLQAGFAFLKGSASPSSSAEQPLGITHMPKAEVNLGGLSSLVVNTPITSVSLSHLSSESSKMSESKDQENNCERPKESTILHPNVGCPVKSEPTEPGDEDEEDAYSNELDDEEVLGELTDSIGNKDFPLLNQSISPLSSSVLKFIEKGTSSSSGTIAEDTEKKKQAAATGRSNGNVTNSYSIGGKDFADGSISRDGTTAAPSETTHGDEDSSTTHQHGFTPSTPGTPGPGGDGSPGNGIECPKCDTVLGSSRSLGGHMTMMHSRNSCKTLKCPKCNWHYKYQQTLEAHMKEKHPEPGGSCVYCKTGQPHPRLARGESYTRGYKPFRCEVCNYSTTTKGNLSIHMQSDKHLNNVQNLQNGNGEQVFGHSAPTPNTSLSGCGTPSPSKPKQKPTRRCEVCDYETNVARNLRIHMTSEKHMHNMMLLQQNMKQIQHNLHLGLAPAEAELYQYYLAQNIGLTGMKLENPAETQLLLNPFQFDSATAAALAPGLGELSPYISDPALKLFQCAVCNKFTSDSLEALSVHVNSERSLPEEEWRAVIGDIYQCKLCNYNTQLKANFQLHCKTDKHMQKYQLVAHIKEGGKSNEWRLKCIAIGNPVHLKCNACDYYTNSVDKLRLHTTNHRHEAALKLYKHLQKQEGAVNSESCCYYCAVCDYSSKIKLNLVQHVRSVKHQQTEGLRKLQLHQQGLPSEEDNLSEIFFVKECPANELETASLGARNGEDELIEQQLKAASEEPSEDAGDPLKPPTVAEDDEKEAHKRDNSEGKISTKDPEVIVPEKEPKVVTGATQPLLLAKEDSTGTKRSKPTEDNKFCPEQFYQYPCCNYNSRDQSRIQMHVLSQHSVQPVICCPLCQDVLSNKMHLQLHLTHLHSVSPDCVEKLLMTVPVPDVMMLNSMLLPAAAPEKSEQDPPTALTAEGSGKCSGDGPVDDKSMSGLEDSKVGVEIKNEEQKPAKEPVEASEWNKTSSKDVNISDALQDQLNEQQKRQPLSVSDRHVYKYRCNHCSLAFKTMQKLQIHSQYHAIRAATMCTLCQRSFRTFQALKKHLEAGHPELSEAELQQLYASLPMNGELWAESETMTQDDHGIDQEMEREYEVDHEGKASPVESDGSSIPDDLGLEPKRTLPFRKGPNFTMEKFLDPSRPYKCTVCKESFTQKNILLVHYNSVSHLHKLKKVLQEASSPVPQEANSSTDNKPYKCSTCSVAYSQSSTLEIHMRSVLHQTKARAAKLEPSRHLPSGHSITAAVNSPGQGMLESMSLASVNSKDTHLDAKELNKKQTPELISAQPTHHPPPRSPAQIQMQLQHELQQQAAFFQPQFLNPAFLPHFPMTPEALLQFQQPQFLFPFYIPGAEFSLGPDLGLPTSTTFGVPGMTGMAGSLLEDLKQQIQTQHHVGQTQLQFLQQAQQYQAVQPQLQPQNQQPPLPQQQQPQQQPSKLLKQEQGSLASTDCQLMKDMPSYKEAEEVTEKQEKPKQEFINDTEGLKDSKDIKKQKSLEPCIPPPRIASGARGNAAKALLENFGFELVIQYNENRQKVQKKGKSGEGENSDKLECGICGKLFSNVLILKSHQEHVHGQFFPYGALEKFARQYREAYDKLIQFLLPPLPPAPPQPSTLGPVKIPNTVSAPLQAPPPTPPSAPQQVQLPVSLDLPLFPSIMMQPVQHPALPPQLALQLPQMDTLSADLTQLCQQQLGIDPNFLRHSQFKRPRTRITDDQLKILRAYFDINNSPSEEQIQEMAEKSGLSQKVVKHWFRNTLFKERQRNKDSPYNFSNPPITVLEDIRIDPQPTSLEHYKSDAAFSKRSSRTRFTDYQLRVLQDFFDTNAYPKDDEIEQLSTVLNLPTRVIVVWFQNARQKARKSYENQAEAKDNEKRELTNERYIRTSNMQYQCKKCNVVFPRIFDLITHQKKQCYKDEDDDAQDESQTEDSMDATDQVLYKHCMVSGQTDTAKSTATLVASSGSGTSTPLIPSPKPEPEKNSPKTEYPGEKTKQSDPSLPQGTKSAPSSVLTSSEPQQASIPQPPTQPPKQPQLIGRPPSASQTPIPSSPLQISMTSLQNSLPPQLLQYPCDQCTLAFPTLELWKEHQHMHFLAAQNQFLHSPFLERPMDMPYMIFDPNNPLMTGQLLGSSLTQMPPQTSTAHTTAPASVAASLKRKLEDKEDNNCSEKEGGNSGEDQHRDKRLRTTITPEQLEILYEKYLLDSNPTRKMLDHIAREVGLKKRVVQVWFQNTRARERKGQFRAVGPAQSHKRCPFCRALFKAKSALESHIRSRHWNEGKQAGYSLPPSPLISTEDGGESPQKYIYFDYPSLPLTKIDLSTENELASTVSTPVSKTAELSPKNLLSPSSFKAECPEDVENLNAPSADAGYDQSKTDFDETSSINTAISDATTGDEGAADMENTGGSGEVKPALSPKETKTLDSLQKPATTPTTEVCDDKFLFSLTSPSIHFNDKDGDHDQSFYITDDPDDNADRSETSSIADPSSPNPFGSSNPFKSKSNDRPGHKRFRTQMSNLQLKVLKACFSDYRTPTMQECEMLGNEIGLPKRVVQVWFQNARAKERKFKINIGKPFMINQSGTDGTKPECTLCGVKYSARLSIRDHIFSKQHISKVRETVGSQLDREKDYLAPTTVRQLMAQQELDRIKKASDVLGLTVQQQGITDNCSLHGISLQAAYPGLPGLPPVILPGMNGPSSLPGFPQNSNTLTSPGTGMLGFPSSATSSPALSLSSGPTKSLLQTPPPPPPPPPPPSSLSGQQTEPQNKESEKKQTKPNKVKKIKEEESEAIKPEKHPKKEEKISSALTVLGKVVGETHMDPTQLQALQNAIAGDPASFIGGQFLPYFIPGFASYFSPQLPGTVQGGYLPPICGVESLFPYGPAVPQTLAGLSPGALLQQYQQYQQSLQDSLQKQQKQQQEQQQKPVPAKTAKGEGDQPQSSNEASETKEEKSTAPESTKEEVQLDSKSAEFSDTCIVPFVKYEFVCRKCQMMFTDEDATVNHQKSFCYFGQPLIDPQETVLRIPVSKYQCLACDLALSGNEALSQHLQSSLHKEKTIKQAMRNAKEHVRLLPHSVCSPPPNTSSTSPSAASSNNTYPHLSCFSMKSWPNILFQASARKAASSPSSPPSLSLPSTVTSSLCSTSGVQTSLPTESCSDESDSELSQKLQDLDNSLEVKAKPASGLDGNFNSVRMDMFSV
# UniProt Q9JKL4: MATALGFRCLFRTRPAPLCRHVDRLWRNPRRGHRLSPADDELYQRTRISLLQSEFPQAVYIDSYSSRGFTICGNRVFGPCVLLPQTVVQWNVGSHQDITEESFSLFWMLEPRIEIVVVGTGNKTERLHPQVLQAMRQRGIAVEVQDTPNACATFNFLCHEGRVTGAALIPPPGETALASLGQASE
# UniProt Q9ESN9: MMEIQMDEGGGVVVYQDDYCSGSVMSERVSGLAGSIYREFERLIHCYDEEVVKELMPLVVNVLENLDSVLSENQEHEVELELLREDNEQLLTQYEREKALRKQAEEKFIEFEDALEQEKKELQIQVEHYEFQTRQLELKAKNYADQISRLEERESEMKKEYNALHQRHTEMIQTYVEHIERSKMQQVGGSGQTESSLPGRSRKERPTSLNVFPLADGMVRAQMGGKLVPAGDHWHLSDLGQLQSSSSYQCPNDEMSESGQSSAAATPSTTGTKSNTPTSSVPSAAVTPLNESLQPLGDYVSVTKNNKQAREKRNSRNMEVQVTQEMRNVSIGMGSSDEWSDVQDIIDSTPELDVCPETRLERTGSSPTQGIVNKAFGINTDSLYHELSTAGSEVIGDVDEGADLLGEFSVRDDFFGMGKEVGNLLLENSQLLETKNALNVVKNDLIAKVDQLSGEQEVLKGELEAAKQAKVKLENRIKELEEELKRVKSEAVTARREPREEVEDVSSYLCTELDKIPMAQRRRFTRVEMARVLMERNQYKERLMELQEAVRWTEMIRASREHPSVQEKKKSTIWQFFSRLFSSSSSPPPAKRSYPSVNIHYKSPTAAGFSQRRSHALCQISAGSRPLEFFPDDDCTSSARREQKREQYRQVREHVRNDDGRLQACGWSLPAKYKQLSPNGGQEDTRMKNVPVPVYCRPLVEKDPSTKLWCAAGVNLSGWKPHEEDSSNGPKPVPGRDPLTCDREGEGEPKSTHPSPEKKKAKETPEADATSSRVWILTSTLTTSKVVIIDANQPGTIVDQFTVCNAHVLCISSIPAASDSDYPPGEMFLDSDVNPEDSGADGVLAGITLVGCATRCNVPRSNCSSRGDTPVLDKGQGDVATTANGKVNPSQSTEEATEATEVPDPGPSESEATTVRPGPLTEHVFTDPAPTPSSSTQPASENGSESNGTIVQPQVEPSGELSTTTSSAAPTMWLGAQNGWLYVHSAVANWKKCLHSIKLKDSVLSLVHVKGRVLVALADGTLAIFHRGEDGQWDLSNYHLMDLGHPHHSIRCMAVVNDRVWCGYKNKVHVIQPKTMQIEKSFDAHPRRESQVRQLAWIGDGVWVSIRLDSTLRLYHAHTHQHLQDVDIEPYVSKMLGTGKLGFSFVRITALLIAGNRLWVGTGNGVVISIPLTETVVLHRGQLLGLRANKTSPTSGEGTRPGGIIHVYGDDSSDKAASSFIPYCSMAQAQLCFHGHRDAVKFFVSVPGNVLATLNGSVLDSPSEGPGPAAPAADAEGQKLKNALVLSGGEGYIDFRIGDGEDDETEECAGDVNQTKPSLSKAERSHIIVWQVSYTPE
# This is one part of the list. Most entries show no effect beyond the scatter of the controls.
# Compound: CN[C@@H]1C[C@H]2O[C@@](C)([C@@H]1OC)n1c3ccccc3c3c4c(c5c6ccccc6n2c5c31)C(=O)NC4 [staurosporine]
# Assay: log2 fold change of tryptic peptide abundance, ligand vs vehicle (limited proteolysis) (log2 ratio); higher = more trypsin-susceptible (destabilized)
# Settings: ligand concentration: 20 uM; sample: mouse liver crude lysate; replicate design: treated separately
row,Target,log2 fold change
1,"UniProt Q9JIB6 (peptide sequence: FAQALGSLR, peptide start residue: 1271)",0.362
2,"UniProt Q9JJN2 (peptide sequence: KKQAAATGR, peptide start residue: 535)",-0.639
3,"UniProt Q9JII5 (peptide sequence: GQNHNVQGFHPYR, peptide start residue: 393)",-0.453
4,"UniProt Q9JKL4 (peptide sequence: GFTICGNR, peptide start residue: 68)",-0.366
5,"UniProt Q9ESN9 (peptide sequence: HTEMIQTYVEHIER, peptide start residue: 168)",0.764
